{"source": "the supplement of paper PMC6411743", "experiment_in_all_cases": "NP40-soluble protein abundance relative to vehicle (solubility fold change) (ratio); higher = more soluble protein in presence of GTP", "key": {"UniProt Q6UW63": {"target": "T1, UniProt Q6UW63", "T1 sequence (whole entry)": "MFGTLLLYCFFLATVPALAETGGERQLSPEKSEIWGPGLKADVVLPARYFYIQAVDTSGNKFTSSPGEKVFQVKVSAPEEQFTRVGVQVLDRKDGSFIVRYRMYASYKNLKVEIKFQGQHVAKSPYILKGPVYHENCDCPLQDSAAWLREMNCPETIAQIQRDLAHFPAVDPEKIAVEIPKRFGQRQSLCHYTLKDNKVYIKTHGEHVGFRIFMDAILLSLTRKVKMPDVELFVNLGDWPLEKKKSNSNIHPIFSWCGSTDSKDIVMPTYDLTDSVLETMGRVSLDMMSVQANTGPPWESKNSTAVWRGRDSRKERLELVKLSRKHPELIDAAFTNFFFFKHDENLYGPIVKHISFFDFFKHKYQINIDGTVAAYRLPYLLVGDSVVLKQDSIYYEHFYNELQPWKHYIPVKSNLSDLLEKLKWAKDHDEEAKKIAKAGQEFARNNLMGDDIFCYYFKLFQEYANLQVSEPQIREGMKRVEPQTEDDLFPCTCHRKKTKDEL", "outline": "(§1)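 In three independent experiments, Jurkat crude lysate made by Dounce homogenisation was treated for 10 min at room temperature and then 3 min at 37 °C with eight concentrations ranging from 0.1 to 10 mM. It was then solubilised with 0.8% NP40 plus benzonase for 60 min at 4 °C and ultracentrifuged. The supernatant was TMT-labelled for LC-MS/MS, and each value is the fold change against the detergent-processed vehicle for the same replicate, using vsn-normalised intensities.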"}, "UniProt Q6UX04": {"target": "T2, UniProt Q6UX04", "T2 sequence (whole entry)": "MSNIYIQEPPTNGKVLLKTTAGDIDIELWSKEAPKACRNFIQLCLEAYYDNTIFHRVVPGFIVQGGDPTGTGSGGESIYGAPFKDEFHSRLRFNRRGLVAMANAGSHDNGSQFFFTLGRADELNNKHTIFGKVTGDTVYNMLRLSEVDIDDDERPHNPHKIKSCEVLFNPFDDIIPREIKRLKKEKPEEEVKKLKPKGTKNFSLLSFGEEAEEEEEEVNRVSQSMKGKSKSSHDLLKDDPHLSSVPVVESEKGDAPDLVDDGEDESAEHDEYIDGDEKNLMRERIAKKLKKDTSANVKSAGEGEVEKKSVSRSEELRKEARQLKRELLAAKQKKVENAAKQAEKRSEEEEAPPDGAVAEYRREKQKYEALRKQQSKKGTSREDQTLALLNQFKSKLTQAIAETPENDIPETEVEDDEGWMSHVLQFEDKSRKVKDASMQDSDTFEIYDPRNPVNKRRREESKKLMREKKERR", "outline": "as §1"}, "UniProt Q7L8W6": {"target": "T3, UniProt Q7L8W6", "T3 sequence (whole entry)": "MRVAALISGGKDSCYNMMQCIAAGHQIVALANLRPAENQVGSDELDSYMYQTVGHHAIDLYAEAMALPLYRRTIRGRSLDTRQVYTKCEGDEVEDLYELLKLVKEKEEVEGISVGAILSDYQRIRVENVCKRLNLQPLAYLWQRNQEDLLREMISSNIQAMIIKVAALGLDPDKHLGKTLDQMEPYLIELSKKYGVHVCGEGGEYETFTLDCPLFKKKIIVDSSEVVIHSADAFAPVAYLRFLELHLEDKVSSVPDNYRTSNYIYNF", "outline": "as §1"}, "[1]": {"target": "T4, UniProt Q86TB9 and related entries", "T4 sequence (whole entry)": "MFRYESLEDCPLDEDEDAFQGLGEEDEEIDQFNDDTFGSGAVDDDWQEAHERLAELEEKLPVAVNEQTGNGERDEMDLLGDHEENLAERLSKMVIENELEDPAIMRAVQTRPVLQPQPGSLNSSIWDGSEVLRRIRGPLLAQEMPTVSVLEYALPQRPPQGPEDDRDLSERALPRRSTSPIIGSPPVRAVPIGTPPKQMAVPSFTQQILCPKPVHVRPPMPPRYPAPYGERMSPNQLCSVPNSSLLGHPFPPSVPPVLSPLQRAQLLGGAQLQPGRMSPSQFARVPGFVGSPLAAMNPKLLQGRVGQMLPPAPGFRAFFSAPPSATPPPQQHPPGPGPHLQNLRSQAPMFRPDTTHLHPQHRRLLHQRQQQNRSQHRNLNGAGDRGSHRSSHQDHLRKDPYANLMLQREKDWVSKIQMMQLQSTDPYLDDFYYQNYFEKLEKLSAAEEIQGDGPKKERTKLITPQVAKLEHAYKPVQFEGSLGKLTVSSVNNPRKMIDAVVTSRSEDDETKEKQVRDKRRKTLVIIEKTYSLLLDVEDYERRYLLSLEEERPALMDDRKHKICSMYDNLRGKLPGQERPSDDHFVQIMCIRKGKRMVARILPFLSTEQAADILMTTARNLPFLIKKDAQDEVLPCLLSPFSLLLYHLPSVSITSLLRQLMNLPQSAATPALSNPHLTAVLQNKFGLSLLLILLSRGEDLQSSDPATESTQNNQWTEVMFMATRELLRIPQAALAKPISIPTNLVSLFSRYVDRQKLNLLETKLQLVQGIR", "outline": "as §1"}, "[2]": {"target": "T5, UniProt Q86WA6 and related entries", "T5 sequence (whole entry)": "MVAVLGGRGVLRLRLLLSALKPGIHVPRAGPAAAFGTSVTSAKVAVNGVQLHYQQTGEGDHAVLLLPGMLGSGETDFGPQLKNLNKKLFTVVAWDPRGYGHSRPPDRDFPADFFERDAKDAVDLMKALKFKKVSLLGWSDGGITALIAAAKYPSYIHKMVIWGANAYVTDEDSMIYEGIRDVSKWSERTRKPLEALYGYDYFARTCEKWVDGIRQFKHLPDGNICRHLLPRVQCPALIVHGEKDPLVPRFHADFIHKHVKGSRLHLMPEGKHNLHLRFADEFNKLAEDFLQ", "outline": "as §1"}}, "note": "± gives the standard deviation of the averaged measurements. This is one part of the list.", "data": [{"molecule": "Nc1nc2c(ncn2[C@@H]2O[C@H](COP(=O)(O)OP(=O)(O)OP(=O)(O)O)[C@@H](O)[C@H]2O)c(=O)[nH]1", "note": "[guanosine triphosphate]", "values": [{"measurement": "NP40-soluble protein abundance", "setting": "UniProt Q6UW63; concentration: 4mM", "value": "1.04 ± 0.03"}, {"measurement": "NP40-soluble protein abundance", "setting": "UniProt Q6UW63; concentration: 6mM", "value": "1.06 ± 0.034"}, {"measurement": "NP40-soluble protein abundance", "setting": "UniProt Q6UW63; concentration: 8mM", "value": "1.02 ± 0.046"}, {"measurement": "NP40-soluble protein abundance", "setting": "UniProt Q6UW63; concentration: 10mM", "value": "0.979 ± 0.011"}, {"measurement": "NP40-soluble protein abundance", "setting": "UniProt Q6UX04; concentration: 0.1mM", "value": "1 ± 0.038"}, {"measurement": "NP40-soluble protein abundance", "setting": "UniProt Q6UX04; concentration: 0.5mM", "value": "1.04 ± 0.059"}, {"measurement": "NP40-soluble protein abundance", "setting": "UniProt Q6UX04; concentration: 1mM", "value": "1.03 ± 0.038"}, {"measurement": "NP40-soluble protein abundance", "setting": "UniProt Q6UX04; concentration: 2mM", "value": "0.986 ± 0.072"}, {"measurement": "NP40-soluble protein abundance", "setting": "UniProt Q6UX04; concentration: 4mM", "value": "0.972 ± 0.053"}, {"measurement": "NP40-soluble protein abundance", "setting": "UniProt Q6UX04; concentration: 6mM", "value": "0.999 ± 0.069"}, {"measurement": "NP40-soluble protein abundance", "setting": "UniProt Q6UX04; concentration: 8mM", "value": "1.03 ± 0.062"}, {"measurement": "NP40-soluble protein abundance", "setting": "UniProt Q6UX04; concentration: 10mM", "value": "1.02 ± 0.059"}, {"measurement": "NP40-soluble protein abundance", "setting": "UniProt Q7L8W6; concentration: 0.1mM", "value": "1.06 ± 0.11"}, {"measurement": "NP40-soluble protein abundance", "setting": "UniProt Q7L8W6; concentration: 0.5mM", "value": "0.948 ± 0.17"}, {"measurement": "NP40-soluble protein abundance", "setting": "UniProt Q7L8W6; concentration: 1mM", "value": "0.991 ± 0.04"}, {"measurement": "NP40-soluble protein abundance", "setting": "UniProt Q7L8W6; concentration: 2mM", "value": "0.952 ± 0.023"}, {"measurement": "NP40-soluble protein abundance", "setting": "UniProt Q7L8W6; concentration: 4mM", "value": "0.923 ± 0.13"}, {"measurement": "NP40-soluble protein abundance", "setting": "UniProt Q7L8W6; concentration: 6mM", "value": "0.987 ± 0.15"}, {"measurement": "NP40-soluble protein abundance", "setting": "UniProt Q7L8W6; concentration: 8mM", "value": "0.867 ± 0.16"}, {"measurement": "NP40-soluble protein abundance", "setting": "UniProt Q7L8W6; concentration: 10mM", "value": "0.797 ± 0.12"}, {"measurement": "NP40-soluble protein abundance", "setting": "[1]; concentration: 0.1mM", "value": "0.989 ± 0.055"}, {"measurement": "NP40-soluble protein abundance", "setting": "[1]; concentration: 0.5mM", "value": "0.981 ± 0.053"}, {"measurement": "NP40-soluble protein abundance", "setting": "[1]; concentration: 1mM", "value": "0.987 ± 0.034"}, {"measurement": "NP40-soluble protein abundance", "setting": "[1]; concentration: 2mM", "value": "0.966 ± 0.032"}, {"measurement": "NP40-soluble protein abundance", "setting": "[1]; concentration: 4mM", "value": "0.956 ± 0.032"}, {"measurement": "NP40-soluble protein abundance", "setting": "[1]; concentration: 6mM", "value": "0.971 ± 0.04"}, {"measurement": "NP40-soluble protein abundance", "setting": "[1]; concentration: 8mM", "value": "0.963 ± 0.03"}, {"measurement": "NP40-soluble protein abundance", "setting": "[1]; concentration: 10mM", "value": "0.966 ± 0.06"}, {"measurement": "NP40-soluble protein abundance", "setting": "[2]; concentration: 0.1mM", "value": "1.03 ± 0.053"}, {"measurement": "NP40-soluble protein abundance", "setting": "[2]; concentration: 0.5mM", "value": "0.993 ± 0.065"}, {"measurement": "NP40-soluble protein abundance", "setting": "[2]; concentration: 1mM", "value": "0.985 ± 0.02"}, {"measurement": "NP40-soluble protein abundance", "setting": "[2]; concentration: 2mM", "value": "0.943 ± 0.056"}, {"measurement": "NP40-soluble protein abundance", "setting": "[2]; concentration: 4mM", "value": "0.96 ± 0.037"}, {"measurement": "NP40-soluble protein abundance", "setting": "[2]; concentration: 6mM", "value": "0.922 ± 0.047"}, {"measurement": "NP40-soluble protein abundance", "setting": "[2]; concentration: 8mM", "value": "0.922 ± 0.03"}, {"measurement": "NP40-soluble protein abundance", "setting": "[2]; concentration: 10mM", "value": "0.908 ± 0.055"}]}]}
